# This is one part of the list. Shown are side measurements of this screen, not its main read-out; they come without a call. Compounds called inactive in the main read-out are mostly missing here. Potencies come from curve fits of mixed quality, noted in brackets.
# Test: qHTS Assay for Lipid Storage Modulators in Drosophila S3 Cells;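 for cell number change: cells counted by Cell Tracker Red CMTPX staining in the red channel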
# Conditions: BODIPY lipid droplet fluorescence, 18-24 h; for cell number change: measured here: cell count max response, cells fed with added oleic acid
# How it was run: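 Drosophila S3 cells got compounds at several concentrations plus oleic acid (400 uM solution). Laser-scanning cytometry with 488 nm excitation read lipid droplets at 500-530 nm and cells at 575-640 nm. Percent activity was relative to 20 uM Triacsin C.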
# [1] = measured here: cell number channel AC50, cells fed with added oleic acid
# [2] = measured here: lipid fluorescence (Fed channel) AC50, cells fed with added oleic acid
SMILES,cell number change [%],AC50 [1],AC50 [2]
O=[N+]([O-])c1cc(C(F)(F)F)cc([N+](=O)[O-])c1NCCNC(=S)Nc1ccc(Cl)c(Cl)c1,-71.1,"32.6 µM [falling, single point]","32.6 µM [falling, single point]"
COc1cccc(CNC(=O)C2=Cc3cccc(OC)c3OC2)c1,-20.1,"0.651 µM [falling, full curve, poor fit]",–
COCCN(C(=O)COC(=O)Cc1coc2cc3c(cc12)CCC3)c1c(N)n(Cc2ccccc2)c(=O)[nH]c1=O,41.5,"18.4 µM [rising, single point]",–
CCOc1ccc(NC(=O)CNC(=O)c2ccc([N+](=O)[O-])cc2)cc1,–,"2.06 µM [rising, single point]",–
c1ccc(-c2nnc(N3CCN(c4ccccn4)CC3)c3ccccc23)cc1,268,"1.64 µM [rising, full curve]","1.84 µM [rising, full curve]"
Cc1cc2ccccn2c1C(=O)c1cc([N+](=O)[O-])cc([N+](=O)[O-])c1,-129,"29.1 µM [falling, partial curve, poor fit]","29.1 µM [falling, partial curve]"
Nc1cc(C(=O)OCC(=O)N2CCOCC2)ccc1Cl,–,"0.13 µM [rising, full curve, poor fit]","2.91 µM [falling, single point]"
COc1ccc(N2CCN(c3oc(-c4ccco4)nc3C#N)CC2)cc1,-29.4,–,"0.731 µM [falling, single point]"
c1ccc(-c2csc(N3CCOCC3)n2)cc1,-18.8,"0.517 µM [falling, full curve, poor fit]","6.51 µM [falling, single point]"
COc1ccccc1CC(=O)Nc1cccc2ccccc12,-9.71,–,"3.26 µM [rising, full curve, poor fit]"
COc1ccc(CCN(C)C(=S)NC(=O)c2ccc(F)cc2Cl)cc1OC,–,–,"4.11 µM [falling, single point]"
COc1ccc(-c2nnc(C)c3nocc23)cc1,37.8,"29.1 µM [rising, single point]",–
O=C(CSc1ccccn1)Nc1cccc(S(=O)(=O)N2CCCC2)c1,-28.1,–,"0.00517 µM [falling, full curve, poor fit]"
C=CCSc1nnc(-c2ccc([N+](=O)[O-])cc2)o1,16.5,–,"4.61 µM [rising, single point]"
COc1cc([N+](=O)[O-])ccc1NC(=S)N1CCOCC1,36.9,"25.1 µM [rising, partial curve, poor fit]","3.16 µM [rising, partial curve, poor fit]"
CC(C)C(=O)NC(c1ccccc1)c1cc([N+](=O)[O-])c2cccnc2c1O (centres undefined),-1.4,–,"4.61 µM [falling, single point]"
CN(C)CCNC(=O)C(=O)NCC1OCCN1S(=O)(=O)c1cc(F)ccc1F (centres undefined),18.4,–,"29.1 µM [falling, single point]"
COc1cccc(/C=N/Nc2ncnc(N)c2[N+](=O)[O-])c1OC,-0.697,–,"6.51 µM [falling, single point]"
COc1ccc(N(C(=O)c2cccnc2)S(=O)(=O)c2cccs2)cc1,-5.41,"0.58 µM [falling, single point]",–

SMILES,cell number change [%],AC50 [1],AC50 [2]
CC(C)c1nc(SCC(=O)Nc2ccc([N+](=O)[O-])cc2Br)n[nH]1,30.7,–,–
O=C(COC(=O)/C=C/c1ccco1)NCc1ccc(Cl)cc1,-14.4,–,"18.4 µM [rising, single point]"
COCCCn1nnnc1SCC(=O)Nc1nc2ccccc2s1,2.56,–,–
COc1ccc(CNC(=O)c2ccc(-c3ccccc3)cc2)cc1OC,12,–,"4.61 µM [rising, full curve, poor fit]"
COc1ccc(C(=O)Nc2ccccc2SCc2cc(=O)n3nc(C)sc3n2)cc1OC,-1.83,–,–
C=CCSc1nnc(NC(=O)CCNC(=O)c2ccco2)s1,14.5,–,"0.562 µM [falling, single point]"
CCOC(=O)C(=O)Nc1ccccc1C(=O)NC(C)C,-26.5,–,"4.11 µM [falling, full curve, poor fit]"
CC(C)NC(=O)C1CCN(C2CCN(C(=O)c3scc4c3CCCC4)CC2)CC1,-17.4,–,"23.1 µM [falling, partial curve]"
CN(CC1CCCO1)S(=O)(=O)c1ccc(C(=O)Nc2nc3cc4c(cc3s2)OCO4)cc1 (centres undefined),2.59,–,–
NNC(=O)CSc1c(-c2cccs2)[nH]c2ccccc12,2.38,–,"14.6 µM [rising, partial curve]"
Cc1cc2c(c(=O)o1)C(C(C)C)C(C#N)=C(N)O2 (centres undefined),1.67,–,–
COc1ccc(/C=C2/SC(=S)N(n3c(C)ccc3C)C2=O)cc1,6.48,–,"16.4 µM [rising, single point]"
Nc1c(Cl)ncnc1N/N=C/c1ccc2ccccc2n1,-33.4,"20.6 µM [falling, single point]","29.1 µM [falling, single point]"
CCCCN(CC)Cc1ccc(CNC(=O)Nc2ccccc2)o1,–,–,"18.4 µM [falling, single point]"
O=C(Nc1ccc(Cl)cn1)c1ccc(COCC(F)(F)C(F)F)o1,–,–,"5.8 µM [falling, partial curve]"
Cc1nnc2nc(-c3ccccc3)nc(-c3ccccc3)n12,12.2,"0.0058 µM [rising, full curve, poor fit]","0.0291 µM [rising, full curve]"
O=C(COC(=O)CNC(=O)c1ccc(Cl)c([N+](=O)[O-])c1)NNC(=O)c1cccs1,-52.9,"29.1 µM [falling, single point]",–
COc1ccccc1-n1c(SCC(=O)N2CCc3ccccc32)nc2c(c1=O)SCC2,19.6,–,"6.51 µM [rising, single point]"
N#Cc1c(SCC(=O)Nc2nccs2)nc2c(c1-c1ccco1)CCCC2,-2.07,–,"0.164 µM [rising, full curve, poor fit]"

# A few values from above.
# Entry for `COc1ccccc1-n1c(SCC(=O)N2CCc3ccccc32)nc2c(c1=O)SCC2` under AC50 [2]: 6.51 µM [rising, single point]
# Entry for `O=C(Nc1ccc(Cl)cn1)c1ccc(COCC(F)(F)C(F)F)o1` under AC50 [2]: 5.8 µM [falling, partial curve]
# Entry for `CCOC(=O)C(=O)Nc1ccccc1C(=O)NC(C)C` under AC50 [2]: 4.11 µM [falling, full curve, poor fit]

# Reference: PubChem BioAssay AID2685 (National Center for Advancing Translational Sciences (NCATS), 2010)
